# Assay results from US20040072742A1.
# Results are given in words; binding and its absence hold for the method and conditions named. Some entries that bind do so weakly or less than the wild type. Tags and fused reporters may be left off the sequences shown.
# T1: GST-MD36N4 protein (human MD36 C terminal part fused to glutathione S-transferase) (human) (UniProt Q9Y613)
# T1 sequence: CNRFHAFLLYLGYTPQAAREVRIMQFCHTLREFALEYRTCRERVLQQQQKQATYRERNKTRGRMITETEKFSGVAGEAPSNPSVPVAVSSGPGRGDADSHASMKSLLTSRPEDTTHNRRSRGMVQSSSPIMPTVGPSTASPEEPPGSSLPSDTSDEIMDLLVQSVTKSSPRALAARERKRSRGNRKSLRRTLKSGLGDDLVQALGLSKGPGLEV
# Biological target: T1, GST-MD36N4 protein (human MD36 C terminal part fused to glutathione S-transferase) (human)
# Assay: plate binding inhibition test; competitor of IRAP-His on GST-MD36N4-coated wells
binder,measurement,value
"VRGLGEHEMDEDEEDYESSAKLLGMSFM (biotinylated (position not given)) [biotinylated IRAP (55-82) peptide, chemically synthesized, without His-tag]",binding,binds
